This note sets out measurements from the supplement of paper PMC8166895.

Molecules are shown by their SMILES. Structures can show the parent of a compound that is named as a salt. Some of the results follow. Most entries show no effect beyond the scatter of the controls.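 Differential scanning fluorimetry gave melting temperatures in a one-replicate pilot screen of a library of approved drugs plus clinical or known-target compounds. Hits increasing melting point at least 2 °C were the strongest stabilizers, while negative shifts signify destabilization.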

This assay has as its system SARS-CoV-2 main protease (Mpro, nsp5). As to the kind of experiment: thermal shift ΔTm of Mpro relative to plate average Tm; higher = stronger thermal stabilization of Mpro (binding). The note with it: 10 µM; protein concentration 1 µM.
Consider `O[C@@](Cc1ncc(CC2(C(F)(F)F)CC2)[nH]1)(c1ccc(-n2cccn2)cc1)C(F)(F)F`, for which the “thermal shift ΔTm of Mpro” value was 0.23 °C. The figure for `CCOC(=O)C1=C(N)Oc2ccc(Br)cc2C1C(C#N)C(=O)OCC` (stereo unspecified) is -0.615 °C; for `N#C/C(=C1/SC[C@@H](c2ccc(Cl)cc2Cl)S1)n1ccnc1` [Luliconazole] it is -0.195 °C; for `O=C1O[C@H]([C@@H](O)CO)C([O-])=C1O.[Na+]` [Sodium ascorbate] it is -0.0649 °C.

Turning to `CCCCOc1cc(C(=O)OCCN(CC)CC)ccc1N` [Oxybuprocaine HCl], the “thermal shift ΔTm of Mpro” value was -0.172 °C. As for `O=[N+]([O-])c1ccc(Nc2nc(N3CCOCC3)nc(N3CCOCC3)n2)cc1`, the figure is 0.00358 °C; as for `Cc1cc(Nc2cc(N3CCN(C)CC3)nc(Sc3ccc(NC(=O)C4CC4)cc3)n2)n[nH]1` [VX-680 (Tozasertib, MK-0457)], -0.0607 °C. As for `Clc1ccc2nsnc2c1NC1=NCCN1` [Tizanidine HCl], the figure is 0.16 °C. The figure for `CCCCOc1ccc(C(=O)Nc2ccc(F)cc2F)cc1` is -0.0215 °C; for `Nc1nc(OCc2cc(Br)cs2)c2[nH]cnc2n1` [Lomeguatrib] it is -0.218 °C. As to `COc1c(Nc2ncc(Cl)c(N[C@H]3[C@@H](C(N)=O)[C@@H]4C=C[C@H]3C4)n2)ccc2c1CC[C@@H](N1CCOCC1)CC2`, the “thermal shift ΔTm of Mpro” value was 0.148 °C. In the case of `Cc1cc2cc3c(C)cc(=O)oc3c(C)c2o1` [Trioxsalen], the “thermal shift ΔTm of Mpro” value was -0.011 °C. As for `CC1(C)CC[C@]2(C(=O)O)[C@H](O)C[C@]3(C)C(=CC[C@@H]4[C@@]5(C)C[C@H](O)[C@H](O)[C@@](C)(CO)[C@@H]5CC[C@]43C)[C@@H]2C1` [Polygalacic acid], the figure is -0.0864 °C. As for `CC(C)Oc1ccc2c(=O)c(-c3ccccc3)coc2c1` [Ipriflavone (Osteofix)], the figure is -0.0303 °C; as for `NC1(Cc2ccc(Cl)cc2)CCN(c2ncnc3[nH]ccc23)CC1`, -0.00429 °C; as for `Cc1cc(C(C)Nc2ccccc2)c2nc(N3CCOCC3)cc(=O)n2c1` (stereo unspecified), 0.132 °C.

As to `COc1cccc2c1C(=O)c1c(O)c3c(c(O)c1C2=O)C[C@@](O)(C(=O)CO)C[C@@H]3O[C@H]1C[C@H](N)[C@H](O[C@@H]2CCCCO2)[C@H](C)O1` [Pirarubicin], the “thermal shift ΔTm of Mpro” value was 0.278 °C. As for `CCOC(=O)C1=C(N)Oc2ccc(Cl)cc2C1C(C#N)C(=O)OCC` (stereo unspecified), the figure is -0.928 °C; as for `COC(=O)C1=CO[C@@H](O)[C@@H]2C(CO)=CC[C@H]12` [Genipin], -0.0261 °C. The figure for `Cc1nc(C(=O)NCC(=O)O)c(O)c2ccc(Oc3ccccc3)cc12` is -0.118 °C; for `COc1cc2c(NC3CCN(C(C)C)CC3)nc(N3CCC(F)(F)CC3)nc2cc1OCCCN1CCCC1` it is 0.105 °C. The figure for `CC(C)(NC(=O)O[C@@H]1CN2CCC1CC2)c1csc(-c2ccc(F)cc2)n1` [Ibiglustat] is -0.0188 °C; for `O=C1C=CC(=O)c2ccccc21` [1,4-Naphthoquinone] it is -1.7 °C.

As to `CCCCCCNC(=O)n1cc(F)c(=O)[nH]c1=O` [Carmofur], the “thermal shift ΔTm of Mpro” value came to 0.247 °C.

Turning to `CCC[C@@H]1C[C@@H](C(=O)N[C@@H]([C@H]2O[C@H](SC)[C@H](OP(=O)(O)O)[C@@H](O)[C@H]2O)[C@H](C)Cl)N(C)C1` [Clindamycin phosphate], the “thermal shift ΔTm of Mpro” value worked out at 0.38 °C.

Turning to `CC(C)n1cnc2c(Nc3cccc(Cl)c3)nc(NCCO)nc21`, the “thermal shift ΔTm of Mpro” value was found to be 0.0359 °C. As for `COc1ccc(Cl)cc1C(=O)NCCc1ccc(S(=O)(=O)NC(=O)NC2CCCCC2)cc1` [Glyburide], the figure is -0.0162 °C; as for `Nc1nc(=O)n([C@@H]2CS[C@H](CO)O2)cc1F` [Emtricitabine], -0.0459 °C.

As to `CN(C)CCc1ccc(O)cc1` [Hordenine], the “thermal shift ΔTm of Mpro” value came out at 0.264 °C. The figure for `CC#C[C@]1(O)CC[C@H]2[C@@H]3CCC4=CC(=O)CCC4=C3[C@@H](c3ccc(N(C)C)cc3)C[C@@]21C` [Mifepristone] is -0.204 °C; for `CCc1cccc(CC)c1NC(=O)N1Cc2[nH]nc(NC(=O)c3ccc(N4CCN(C)CC4)cc3)c2C1` it is 0.174 °C; for `COC(=O)N[C@@H](C)CNc1nccc(-c2cn(C(C)C)nc2-c2cc(Cl)cc(NS(C)(=O)=O)c2F)n1` [Encorafenib] it is 0.185 °C.

Take `CC[C@@H]1C(=O)N(C)c2cnc(Nc3ccc(C(=O)N[C@H]4CC[C@H](N5CCN(CC6CC6)CC5)CC4)cc3OC)nc2N1C(C)C` [Volasertib (BI 6727)]: the “thermal shift ΔTm of Mpro” value was -0.188 °C.

As for `CCn1c(=O)c2c(nc(/C=C/c3ccc(OC)c(OC)c3)n2C)n(CC)c1=O` [Istradefylline], the “thermal shift ΔTm of Mpro” value was -0.0239 °C. As for `CN([C@@H](Cc1ccc(OS(=O)(=O)c2cccc3cnccc23)cc1)C(=O)N1CCN(c2ccccc2)CC1)S(=O)(=O)c1cccc2cnccc12`, the figure is -0.466 °C. As for `C[C@@H]1C/C=C/C=C/C=C/C=C/[C@H](O[C@@H]2O[C@H](C)[C@@H](O)[C@H](N)[C@@H]2O)C[C@@H]2O[C@](O)(C[C@@H](O)C[C@H]3O[C@@H]3/C=C/C(=O)O1)C[C@H](O)[C@H]2C(=O)O` [Natamycin], the figure is 0.646 °C.
